Experimental findings from article PMC10878145 are described below.

Results are given in words; binding and its absence hold for the method and conditions named. Binding seen in cells or lysates may run through a third protein. Binding can be weak; no strength is given.

The target in the experiment is T1, PDK1 (UniProt O15530).
T1 sequence: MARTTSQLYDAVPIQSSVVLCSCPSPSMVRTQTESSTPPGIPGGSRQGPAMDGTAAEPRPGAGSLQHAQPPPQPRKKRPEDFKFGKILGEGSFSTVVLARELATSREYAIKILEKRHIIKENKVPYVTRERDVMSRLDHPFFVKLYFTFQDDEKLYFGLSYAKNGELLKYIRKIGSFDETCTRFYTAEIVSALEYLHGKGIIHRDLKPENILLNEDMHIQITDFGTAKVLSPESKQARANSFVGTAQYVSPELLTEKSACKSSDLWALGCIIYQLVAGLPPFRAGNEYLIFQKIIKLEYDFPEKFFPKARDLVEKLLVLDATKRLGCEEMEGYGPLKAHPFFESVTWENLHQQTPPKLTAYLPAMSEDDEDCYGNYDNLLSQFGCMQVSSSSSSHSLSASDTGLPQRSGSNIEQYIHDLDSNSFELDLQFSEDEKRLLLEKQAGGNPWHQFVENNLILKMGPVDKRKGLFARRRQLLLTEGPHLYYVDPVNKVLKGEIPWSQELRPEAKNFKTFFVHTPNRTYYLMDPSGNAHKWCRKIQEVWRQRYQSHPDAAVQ
In words: co-IP; exogenous co-IP of transfected proteins in HEK-293T cells; lysis buffer 150 mM NaCl, 150 mM Tris, 0.4% NP-40, pH 7.4; antibody 4-6 hrs at 4 °C, protein A magnetic beads 2 hrs at 4 °C; immunoblot; some experiments quantitative with UPP1-WT or UPP1-R94A co-overexpressed, one with SC79. (In general: A western blot detects proteins with antibodies after separation by electrophoresis.)

For “AKT-HA (AKT-FL, wild-type AKT) (human) (enzyme)”, the binding result is given as “binds”.
